In US20110104152A1:
These are yes or no findings as the source states them, for the method shown. Some results given as binding are weak or reduced against the parent protein; the word gives no strength. Where a sequence is shown, tags or fusion partners need not be part of it.

Protein sequences, listed by entry. Tags and fused reporters are not part of them. Lines headed by an entry give the natural chain unless they say otherwise; changes in a name come on top.
UniProt O95750: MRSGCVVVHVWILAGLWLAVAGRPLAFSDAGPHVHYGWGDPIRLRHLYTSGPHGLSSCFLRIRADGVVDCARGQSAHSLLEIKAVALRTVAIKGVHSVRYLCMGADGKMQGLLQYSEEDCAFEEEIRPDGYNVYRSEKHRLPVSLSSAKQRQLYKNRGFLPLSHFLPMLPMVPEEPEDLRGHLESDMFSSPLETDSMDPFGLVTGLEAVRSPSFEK

Tests used:
[1] = molecular target: T1, FGFR4-Fc (recombinant polypeptide comprising a human FGFR4 extracellular domain fused to a human IgG1 Fc fragment) (human) (UniProt P22455); experiment: solid phase binding assay on FGFR4 fused to Fc fragment, 2 µg/mL heparin (FIG. 18E)
T1 sequence (looked up): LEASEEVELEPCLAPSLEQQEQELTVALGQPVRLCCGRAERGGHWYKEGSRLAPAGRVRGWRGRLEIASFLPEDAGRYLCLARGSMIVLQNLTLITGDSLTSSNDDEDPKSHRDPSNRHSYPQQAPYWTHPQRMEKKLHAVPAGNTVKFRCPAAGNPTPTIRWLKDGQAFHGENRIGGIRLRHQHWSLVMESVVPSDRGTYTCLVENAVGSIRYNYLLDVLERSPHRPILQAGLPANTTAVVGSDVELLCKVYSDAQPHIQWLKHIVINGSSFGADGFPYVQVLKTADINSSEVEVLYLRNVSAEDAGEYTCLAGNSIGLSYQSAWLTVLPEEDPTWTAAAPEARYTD

[2] = molecular target: T1, FGFR4-Fc (recombinant polypeptide comprising a human FGFR4 extracellular domain fused to a human IgG1 Fc fragment) (human); experiment: ELISA, FGFR4-Fc captured by anti-human IgG-Fc antibody, 2 µg/mL heparin, detection with biotinylated anti-FGF19 polyclonal antibody

native human FGF19-Flag polypeptide (from UniProt O95750 25-216) (ligand)
binding [1]: binds | binding [2]: binds
